Test results reported in article PMC7819943, “Rice protein-binding microarrays: a tool to detect cis-acting elements near promoter regions in rice”.
Some of the results follow.

By UniProt entry, the sequences of proteins in these tests, tags left out.
UniProt Q0JBA9, entry or part of it: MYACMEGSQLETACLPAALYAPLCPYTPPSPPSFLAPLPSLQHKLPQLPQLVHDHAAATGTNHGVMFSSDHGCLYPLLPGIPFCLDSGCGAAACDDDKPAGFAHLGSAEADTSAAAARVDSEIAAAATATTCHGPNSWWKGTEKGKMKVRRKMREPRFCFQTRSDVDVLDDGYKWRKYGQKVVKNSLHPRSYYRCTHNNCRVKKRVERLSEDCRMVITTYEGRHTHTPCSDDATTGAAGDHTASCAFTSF

Target: OsWRKY34 (Oryza sativa, UniProt Q0JBA9 1-250)
Test: protein-binding microarray (RPBM); PBS, 2% BSA, 51.3 ng/ul salmon testes DNA, 50 uM zinc acetate, 200 nM TF, 25 C, 1 h; high values mean tight binding
Details: protein: recombinant; tags: N-terminal polyhistidine and DsRed monomer fusion (pET32a); label: CyDye5-dUTP incorporated in the synthesized complementary strand; 3' TTTTT single-stranded linker to array surface; dsDNA, one strand shown
Method in brief: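 Per-feature fluorescence intensity (arbitrary units), read on an Axon 4000B scanner, is the binding signal. Transcription factors carrying an N-terminal polyhistidine tag and DsRed fusion were expressed in E. coli BL21-CodonPlus and purified on Ni–NTA. A custom Agilent array, made double-stranded by primer extension with Cy5-dUTP and blocked with 2% BSA, was incubated with 200 nM protein in PBS, 2% BSA, salmon testes DNA and 50 µM zinc acetate at 25 °C for 1 h and then washed.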

Point of comparison: “CCTCTTCGTTCCGCCTCCGCTTATCCGCTCTCGGAGGCCGCGGAGTCACCTAGTGCAG”, binding signal 9860 fluorescence intensity (a.u.). Against it:
- AAGACACAGCTTCAACACGTAACCTATGCACTACACACTACGGAGTCACCTAGTGCAG — higher, 11700 fluorescence intensity (a.u.)
- ATTCCCTTTAAACTCTCCATCTCCGTCCATCAAGCTACCACGGAGTCACCTAGTGCAG — higher, 11200 fluorescence intensity (a.u.)
- ATCCAGAATATCGTCTCATGTGCTTTCAATTTGAAAGCTTCGGAGTCACCTAGTGCAG — lower, 8390 fluorescence intensity (a.u.)
- GTATATATATGCGGCTGTGGTGTTTGTTGTTTTTTCTTTACGGAGTCACCTAGTGCAG — higher, 13500 fluorescence intensity (a.u.)
- GTGCCTCATTTGTTGACTTTGCTAATCCCCAAATCTGATTCGGAGTCACCTAGTGCAG — higher, 9980 fluorescence intensity (a.u.)
- TGTAATCCCCTTTCTCCTACTGCTCTCTGGTTATTATGTGCGGAGTCACCTAGTGCAG — lower, 9620 fluorescence intensity (a.u.)
- GCCCGCGCATCCTTCGCTTGCCTCCCCACCAAGCATCACGCGGAGTCACCTAGTGCAG — lower, 8020 fluorescence intensity (a.u.)
- GGCGCCACCACCGCCGCATCCGCCGCCGCCGCCACCGACGCGGAGTCACCTAGTGCAG — lower, 8600 fluorescence intensity (a.u.)
- TTCAGTCTACTACACCTGAACTATGTTTAACTGATGTTTTCGGAGTCACCTAGTGCAG — lower, 8530 fluorescence intensity (a.u.)
- TCCAGAAGACACCCGCCTGCTCCACTGCCGTTCCTGTCGACGGAGTCACCTAGTGCAG — lower, 9120 fluorescence intensity (a.u.)
- CCTCAAACCAATCTGCCAATCTCTCAACCATTCCATCTCTCGGAGTCACCTAGTGCAG — lower, 9350 fluorescence intensity (a.u.)
- CTATTCCAGAAATCTGTTCTTCCTCAGGGCCGTATCCACACGGAGTCACCTAGTGCAG — lower, 9340 fluorescence intensity (a.u.)
- CGTTTTACCGGCACCTGCCTGGAGAGCCATTGTCCTAGTGCGGAGTCACCTAGTGCAG — lower, 8570 fluorescence intensity (a.u.)
- AAAATTCACAAGGCCACGCGCATCTTGTCTCGGCCAAAAACGGAGTCACCTAGTGCAG — lower, 8050 fluorescence intensity (a.u.)
- GGCTCCGCTCGCCTCGTCTCGTCCCCGTCTCGTCTCGTCTCGGAGTCACCTAGTGCAG — higher, 10600 fluorescence intensity (a.u.)
- ACTAAATTGGGTTGGGGTGCCTCCTCCTTCCTTTCTTTCTCGGAGTCACCTAGTGCAG — higher, 14900 fluorescence intensity (a.u.)
- CATCGTATTCCGCGCGCACGCTTCCCAAACTACTAAACGACGGAGTCACCTAGTGCAG — lower, 8780 fluorescence intensity (a.u.)
- CCTTGTACCTCCCATTGTGGTCCTTTGATAGGCATGCAACCGGAGTCACCTAGTGCAG — lower, 8190 fluorescence intensity (a.u.)
- GACGCGCCACACACACGCACATCTGCAGTTACTCACTCCTCGGAGTCACCTAGTGCAG — higher, 10500 fluorescence intensity (a.u.)
- GCGATCTCGCTCGCCGCTCGCTTTCATCATCATGTCCCTTCGGAGTCACCTAGTGCAG — higher, 10500 fluorescence intensity (a.u.)
- TTCGCGCTCTATCCTTCACCACCGCCTCCGACAACCCTATCGGAGTCACCTAGTGCAG — lower, 9320 fluorescence intensity (a.u.)
- TCGGGGAAGCATTTGTTTGGGAGAGTTTAAGATTATAAGACGGAGTCACCTAGTGCAG — lower, 8040 fluorescence intensity (a.u.)
